Data published in doi:10.1101/2024.04.25.591189.

Columns and labels:
Assay in all cases: co-IP
[1] = molecular target: Mei5-W96A (S. cerevisiae)
[2] = molecular target: Mei5-K95L (S. cerevisiae)
[3] = molecular target: Mei5-R97L (S. cerevisiae)

binding [1]: binds
binding [2]: binds
binding [3]: no binding
B1: Sae3-Flag (protein, UniProt P89114 1-91)
chain: MNYLETQLNKKQKQIQEYESMNGNLIKMFEQLSKEKKNDETPKKISSTYIKELKEYNELRDAGLRLAQIIADEKQCKIKDVFEEIGYSMKD

No constants are given. Whether binding was seen depends on the method and setting. Binding seen in cells or lysates may run through a third protein. For part of these data: Binding can be weak; no strength is given. Where a sequence is shown, tags or fusion partners need not be part of it.
